Measurements as given in the supplement of paper PMC6411743.
± gives the standard deviation of the averaged measurements. The list shows a part of the results.

By UniProt entry, the sequences of proteins in these tests, tags left out. Where a name states a change or a piece, a line headed by the entry shows the natural chain unless it says otherwise.
UniProt P41567, whole entry: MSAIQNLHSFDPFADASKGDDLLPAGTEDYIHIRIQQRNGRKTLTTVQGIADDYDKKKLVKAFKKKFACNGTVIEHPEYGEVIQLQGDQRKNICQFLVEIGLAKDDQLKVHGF
UniProt Q6NW29: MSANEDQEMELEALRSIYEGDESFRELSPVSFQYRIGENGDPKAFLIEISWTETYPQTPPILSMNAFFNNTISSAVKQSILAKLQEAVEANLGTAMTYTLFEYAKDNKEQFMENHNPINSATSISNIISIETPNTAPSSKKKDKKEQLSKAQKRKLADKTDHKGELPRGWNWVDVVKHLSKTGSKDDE
UniProt Q8NG11: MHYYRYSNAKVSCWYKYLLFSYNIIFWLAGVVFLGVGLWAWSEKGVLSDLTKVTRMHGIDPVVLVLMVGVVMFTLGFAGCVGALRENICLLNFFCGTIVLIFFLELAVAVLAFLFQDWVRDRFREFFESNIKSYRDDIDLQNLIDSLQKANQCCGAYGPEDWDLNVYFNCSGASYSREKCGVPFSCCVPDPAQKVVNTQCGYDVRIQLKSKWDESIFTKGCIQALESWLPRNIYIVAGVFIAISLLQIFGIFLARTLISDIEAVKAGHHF
UniProt Q9Y375: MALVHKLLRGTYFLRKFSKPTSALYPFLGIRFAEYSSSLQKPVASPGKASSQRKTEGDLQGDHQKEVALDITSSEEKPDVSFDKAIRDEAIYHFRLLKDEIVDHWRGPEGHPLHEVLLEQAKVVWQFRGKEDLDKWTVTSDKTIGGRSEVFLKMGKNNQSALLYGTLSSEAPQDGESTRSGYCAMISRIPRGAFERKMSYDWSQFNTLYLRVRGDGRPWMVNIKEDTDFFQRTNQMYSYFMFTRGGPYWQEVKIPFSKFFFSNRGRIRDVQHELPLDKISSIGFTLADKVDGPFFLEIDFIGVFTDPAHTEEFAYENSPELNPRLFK
UniProt Q13620, whole entry: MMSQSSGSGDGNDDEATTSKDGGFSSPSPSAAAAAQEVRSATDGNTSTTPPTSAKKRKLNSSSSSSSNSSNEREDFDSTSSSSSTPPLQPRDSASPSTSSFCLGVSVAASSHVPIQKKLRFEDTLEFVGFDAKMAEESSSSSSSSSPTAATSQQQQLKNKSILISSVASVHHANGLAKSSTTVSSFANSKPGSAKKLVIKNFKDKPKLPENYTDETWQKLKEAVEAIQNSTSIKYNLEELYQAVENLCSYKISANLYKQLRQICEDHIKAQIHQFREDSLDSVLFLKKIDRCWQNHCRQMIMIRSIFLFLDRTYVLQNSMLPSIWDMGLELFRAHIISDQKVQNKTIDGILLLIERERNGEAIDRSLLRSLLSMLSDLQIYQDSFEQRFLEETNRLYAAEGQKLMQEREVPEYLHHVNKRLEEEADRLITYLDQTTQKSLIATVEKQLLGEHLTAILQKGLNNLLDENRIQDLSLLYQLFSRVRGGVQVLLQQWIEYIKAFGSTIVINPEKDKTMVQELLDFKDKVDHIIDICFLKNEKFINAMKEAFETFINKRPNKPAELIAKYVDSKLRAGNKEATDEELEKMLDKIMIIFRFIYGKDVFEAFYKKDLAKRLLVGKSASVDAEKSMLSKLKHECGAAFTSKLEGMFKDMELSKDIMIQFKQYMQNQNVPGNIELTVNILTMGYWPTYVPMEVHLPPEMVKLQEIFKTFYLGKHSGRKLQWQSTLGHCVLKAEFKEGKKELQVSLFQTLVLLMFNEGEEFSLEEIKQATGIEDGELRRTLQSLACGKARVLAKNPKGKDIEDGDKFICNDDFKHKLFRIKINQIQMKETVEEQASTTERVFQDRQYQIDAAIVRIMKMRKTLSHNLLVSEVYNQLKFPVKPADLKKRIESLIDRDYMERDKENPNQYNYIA

Compound: Nc1nc2c(ncn2[C@@H]2O[C@H](COP(=O)(O)OP(=O)(O)OP(=O)(O)O)[C@@H](O)[C@H]2O)c(=O)[nH]1 [guanosine triphosphate]
Assay: NP40-soluble protein abundance relative to vehicle (solubility fold change) (ratio); higher = more soluble protein in presence of GTP
Experimental: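 Solubility proteome profiling in Jurkat crude lysate. Lysate was treated with Mg-GTP (0.1-10 mM) for 10 min at room temperature and 3 min at 37 °C, then solubilised with 0.8% NP40 and benzonase, followed by ultracentrifugation. Proteins were quantified by TMT10 LC-MS/MS; the value is the NP40-soluble abundance relative to the NP40-processed vehicle, from 3 independent experiments.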

Row | Target | NP40-soluble protein abundance (concentration: 0.1mM) | NP40-soluble protein abundance (concentration: 0.5mM) | NP40-soluble protein abundance (concentration: 1mM) | NP40-soluble protein abundance (concentration: 2mM) | NP40-soluble protein abundance (concentration: 4mM) | NP40-soluble protein abundance (concentration: 6mM) | NP40-soluble protein abundance (concentration: 8mM) | NP40-soluble protein abundance (concentration: 10mM)
1 | K7EM18 and related entries (UniProt P41567) | 0.846 ± 0.071 | 0.834 ± 0.097 | 0.938 ± 0.1 | 1.03 ± 0.11 | 1.08 ± 0.2 | 1.09 ± 0.15 | 1.09 ± 0.053 | 1.27 ± 0.12
2 | K4DI92 and related entries (UniProt Q6NW29) | 0.97 ± 0.14 | 0.884 ± 0.26 | 0.915 ± 0.2 | 0.996 ± 0.15 | 0.957 ± 0.14 | 0.933 ± 0.089 | 0.99 ± 0.099 | 0.984 ± 0.2
3 | H7BXY6 and related entries (UniProt Q8NG11) | 1.05 ± 0.11 | 1.01 ± 0.083 | 1 ± 0.07 | 0.985 ± 0.04 | 0.962 ± 0.025 | 0.921 ± 0.04 | 0.942 ± 0.096 | 0.932 ± 0.062
4 | H0YL22 and related entries (UniProt Q9Y375) | 0.979 ± 0.059 | 1.05 ± 0.082 | 0.936 ± 0.088 | 0.969 ± 0.071 | 0.922 ± 0.036 | 0.924 ± 0.065 | 0.921 ± 0.071 | 0.943 ± 0.059
5 | K4DI93 (UniProt Q13620) | 1.05 ± 0.094 | 1.05 ± 0.099 | 0.96 ± 0.089 | 0.975 ± 0.13 | 0.95 ± 0.12 | 0.942 ± 0.086 | 0.919 ± 0.07 | 0.902 ± 0.085
